# Earlier results in patent US20160045687A1, “NASAL ADMINISTRATION” (OPTINOSE AS, priority 2013, published 2016).
# Settings: cited from earlier work
smiles,measurement,setting,value
O=C=O [carbon dioxide],decrease in extracellular nasal mucosal pH during each pulse,"5 L/min, 3 s duration, 20% carbon dioxide",0.05-0.1 pH units
same,carbon dioxide concentration required to see a change in the nasal pH,in vivo,> 15%
